The assay is described as follows: inhibitors of GR-EGFP nuclear translocation, primary screen, dynein cargo transport inhibitor project, imaging, high-content, 3617.4 mouse cells (AID 1381). As to conditions: stimulated with dexamethasone, 1 µM.
Where [1] appears, read: measured here: cell count per field, at 20 µM.
Where [2] appears, read: measured here: cytoplasmic GR-EGFP intensity, at 20 µM, stronger effect = higher value.
The mark [3] stands for this setting: measured here: nuclear GR-EGFP intensity, at 20 µM, stronger effect = lower value.
The mark [4] stands for this setting: measured here: cell count per field, at 50 µM.
[5] abbreviates: measured here: cytoplasmic GR-EGFP intensity, at 50 µM, stronger effect = higher value.
Where [6] appears, read: measured here: nuclear GR-EGFP intensity, at 50 µM, stronger effect = lower value.

Structures are written as SMILES. Some of the results follow.

For the compound `Cc1cccc(C)c1OP(C)(N)=O` (stereo not given), the z-score reads like this: under setting [1], -1.54; under setting [2], 0.358; under setting [3], 1.16.
On to `Cc1ccc2nc3c(c(C)c2c1)CC(C(Cl)Cl)S3` (stereo not given), for which the z-score is -1.43 under setting [1], -0.207 under setting [2] and 0.791 under setting [3].
Regarding `O=[N+]([O-])c1ccc2c(c1)C=Nc1ccccc1O2`, the z-score runs as follows: under setting [1], 0.198; under setting [2], -0.161; under setting [3], -0.163.
Regarding `COc1ccc(N/C(=N/P(=O)(N2CCOCC2)N2CCOCC2)N2CCOCC2)cc1`, the z-score is 0.337 under setting [1], -0.136 under setting [2] and 0.249 under setting [3].
As to `Cc1c2c(nc3ccccc13)SC(C(Cl)Cl)C2` (stereo not given), the z-score under setting [1] is 2.13, the z-score under setting [2] is -0.262 and the z-score under setting [3] is -0.739.
For the compound `O=C(OC1CN2CCC1CC2)C12CC3CC(CC(C3)C1)C2` (stereo not given), the z-score reads like this: under setting [1], -0.26; under setting [2], 0.228; under setting [3], 0.0443.
`Cc1cc(=O)[nH]c(N[N+](=O)[O-])n1`: the z-score under setting [1] was determined as 0.0689, the z-score under setting [2] was -0.199 and the z-score under setting [3] stood at 0.141.
On the same counts, the results for `CCN(CC)CCCOC(=O)C(O)(c1ccccc1)c1ccccc1` are 1.19, -0.352 and -0.647.
In turn, `COc1ccc2nc(NP(=O)(c3ccccc3)c3ccccc3)sc2c1` had a z-score under setting [1] of 0.675, a z-score under setting [2] of -0.213 and a z-score under setting [3] of -0.503.
For `COc1cc(I)ccc1[As](=O)(O)O`, the z-score by setting is: under setting [1], -0.329; under setting [2], -0.231; under setting [3], 0.0241.
Compound `CCOP(C)(=S)SCC(=O)NC(C)C(=O)O` (stereo not given) yielded a z-score under setting [1] of -0.281, a z-score under setting [2] of -0.101 and a z-score under setting [3] of 0.697.
Consider `CCOC(=O)c1ccc(NP(C)(=O)Oc2ccc(OC)cc2)cc1` (stereo not given), for which the z-score is 0.0169 under setting [1], -0.244 under setting [2] and 0.0592 under setting [3].
Regarding `CCOC(=O)c1ccc(NC(=O)C(C)(CCl)SC)cc1` (stereo not given), the z-score was 0.488 under setting [1], -0.246 under setting [2] and 0.182 under setting [3].
On to `CCC(C)N(CC(C)C)C(=S)SC(NC(C)=O)C(Cl)(Cl)Cl` (stereo not given), for which the z-score is, setting by setting: under setting [4], 0.391; under setting [5], -0.244; under setting [6], -0.0895.
With `CP(=O)(Nc1ccccn1)Oc1ccc(Cl)cc1` (stereo not given), the z-score runs as follows: under setting [4], 0.693; under setting [5], -0.291; under setting [6], 0.443.
As for `CP(=O)(Nc1ccc(SC(F)(F)F)cc1)Oc1ccc(Cl)cc1` (stereo not given), the z-score is -2.36 under setting [1], -0.0829 under setting [2] and 0.834 under setting [3].
On to `Cc1cccc(C)c1OP(C)(=O)Nc1ccc(SC(F)(F)F)cc1` (stereo not given), for which the z-score runs as follows: under setting [1], -1.65; under setting [2], -0.152; under setting [3], 0.912.
In turn, `COP1(=S)c2c(C)nn(CCC#N)c2N=C(c2ccc(F)cc2)N1C` (stereo not given) displayed a z-score under setting [4] of -1.23, a z-score under setting [5] of -0.0856 and a z-score under setting [6] of 0.727.
`CP(=O)(Oc1ccccc1)OC(c1ccccc1)C(F)(F)F` (stereo not given): the z-score runs as follows: under setting [1], -0.712; under setting [2], -0.301; under setting [3], 0.743.
`CCc1ccc(OP(C)(=O)N2CCN(c3ccc([N+](=O)[O-])cc3)CC2)cc1` (stereo not given): the z-score was 1.3 under setting [1], -0.247 under setting [2] and -0.158 under setting [3].
Regarding `CP(=O)(NC(=O)Nc1ccccc1)Oc1ccccc1` (stereo not given), the z-score was 0.557 under setting [1], -0.29 under setting [2] and -0.536 under setting [3].
On to `O=C(COc1ccccc1)OC1CN2CCC1CC2` (stereo not given), for which the z-score reads like this: under setting [1], 2.95; under setting [2], -0.35; under setting [3], -0.222.
Take `Cc1cc(C)cc(OP(C)(=O)Nc2ccc(SC(F)(F)F)cc2)c1` (stereo not given): the z-score is, setting by setting: under setting [1], -3.02; under setting [2], -0.0341; under setting [3], 1.91.
As for `CP(=S)(Nn1cnnc1)Oc1ccccc1` (stereo not given), the z-score reads like this: under setting [4], -0.738; under setting [5], -0.22; under setting [6], -0.27.
In the case of `CCOC(=O)Nc1cccc([As](=O)(O)O)c1`, the z-score under setting [1] is -0.436, the z-score under setting [2] was -0.201 and the z-score under setting [3] amounted to 0.307.
`Cc1cc(SC(NC=O)C(Cl)(Cl)Cl)ncn1` (stereo not given) registered a z-score under setting [1] of 0.852, a z-score under setting [2] of -0.328 and a z-score under setting [3] of 0.283.
On to `O=P(Nc1ccccn1)(c1cccc2ccccc12)c1cccc2ccccc12`, for which the z-score is -2.05 under setting [1], -0.314 under setting [2] and 1.74 under setting [3].
For the compound `COc1ccccc1OP(C)(=O)Nc1ccccc1` (stereo not given), the z-score is -0.0872 under setting [1], -0.0256 under setting [2] and 0.249 under setting [3].
In turn, `CP(=O)(Nc1ccccc1Br)Oc1ccccc1` (stereo not given) gave a z-score under setting [1] of -0.189, a z-score under setting [2] of -0.304 and a z-score under setting [3] of -0.0636.
`O=[N+]([O-])c1ccc(Nc2ccc(Oc3ccc([N+](=O)[O-])cc3[N+](=O)[O-])cc2)c([N+](=O)[O-])c1`: the z-score by setting is: under setting [1], 1.25; under setting [2], -0.0393; under setting [3], -1.08.
As to `CCOC(=O)Nc1ccc([As](=O)(O)O)c(O)c1`, the z-score by setting is: under setting [1], 0.479; under setting [2], -0.297; under setting [3], 0.0597.
Regarding `Cc1cc(SC(NC(=O)c2ccccc2)C(Cl)(Cl)Cl)nc(C(C)C)n1` (stereo not given), the z-score reads like this: under setting [1], 0.28; under setting [2], -0.022; under setting [3], -0.609.
On the same counts, the results for `O=[N+]([O-])c1ncn(CCn2ncnc2[N+](=O)[O-])n1` are 0.838, -0.247 and -0.291.
On the same counts, the results for `CC(C)(C)C(=O)NC(Sc1ccncn1)C(Cl)(Cl)Cl` (stereo not given) are 1.44, 0.159 and -0.13.
As for `O=C(O)CNc1ccc([As](=O)(O)O)cc1`, the z-score runs as follows: under setting [1], 0.0302; under setting [2], -0.177; under setting [3], -0.443.
With `O=[N+]([O-])c1cccc(NC2=NCC(CBr)S2)c1` (stereo not given), the z-score by setting is: under setting [1], 0.371; under setting [2], 0.131; under setting [3], 0.336.
`CP(=O)(OC12CC3CC(CC(C3)C1)C2)OC12CC3CC(CC(C3)C1)C2`: the z-score was -0.781 under setting [1], -0.118 under setting [2] and 0.311 under setting [3].
As to `CCOC(=O)c1ccc(NP(C)(=O)Oc2ccc(Cl)cc2)cc1` (stereo not given), the z-score is -0.0124 under setting [1], -0.275 under setting [2] and -0.538 under setting [3].
For the compound `O=C(Nc1cc([As](=O)(O)O)ccc1O)c1ccccc1`, the z-score by setting is: under setting [1], 0.398; under setting [2], -0.146; under setting [3], -0.589.
In the same order, the values of `CCN(/C(=N/P(=O)(N1CCOCC1)N1CCOCC1)N1CCOCC1)c1ccc(OC)cc1` are -0.642, -0.189 and 0.664.
With `CP(=O)(Nc1ccc(Cl)cc1)Oc1ccc(F)cc1` (stereo not given), the z-score is 1.2 under setting [4], -0.233 under setting [5] and -1.3 under setting [6].
With `Nc1ccc([As](=O)(O)c2ccc(N)cc2)cc1`, the z-score under setting [1] is -0.759, the z-score under setting [2] was -0.247 and the z-score under setting [3] turned out to be 0.372.
Regarding `CC(C)(C)c1ccc(OP(C)(=O)O)cc1`, the z-score by setting is: under setting [4], -0.251; under setting [5], -0.277; under setting [6], 0.0172.
`COc1ccccc1OP(C)(=O)Nc1ccccc1Br` (stereo not given): the z-score was 0.302 under setting [1], -0.214 under setting [2] and 0.132 under setting [3].
As for `C[N+]1=C2C=CC=CC=C2SC12C([N+](=O)[O-])=CC([N+](=O)[O-])=C[C-]2[N+](=O)[O-]` (stereo not given), the z-score under setting [1] turned out to be 1.95, the z-score under setting [2] was -0.198 and the z-score under setting [3] was -0.464.

The record behind these values is PubChem BioAssay AID1381 (University of Pittsburgh Molecular Library Screening Center, 2008).
